# Assay results from PubChem BioAssay AID256 (DTP/NCI, 2004).
# The list shows only some results of the screen, not a fair sample: it gathers tests that were run many times, whatever their T/C, doses with no T/C, and many T/C values between a quarter and a half above the control. Other doses and runs of a compound stand elsewhere. T/C is the treated group as % of the vehicle group. Some doses have a count of surviving animals in place of a T/C: the source files T/C as zero there, which appears to mark a toxic dose or a test without result, not a measured value. Counts of survivors are from the toxicity check (mostly the fifth day) where no day follows; animals may have died later. Schedules are NCI's codes, taken here to give the interval after Q, in days (D) or hours (H), and the number of doses after X. Some entries hold several experiments; their values stand side by side, smallest first. Some survivor counts are full or nearly so, which does not show that the dose was tolerated: the source hardly ever lists a survival T/C far under the control, and the zero likely stands for such cases as well. Where survival is the endpoint, this PubChem deposit counts one and a half times the control or more as active, and values a quarter to a half above the control carry no call in these data; other NCI protocols may use other cut-offs. Some T/C values carry the count of animals alive at the toxicity check (mostly the fifth day); without a count, all were alive then.
# System: CD2F1 mice, L1210 leukemia ip, survival T/C
# Assay: NCI In Vivo Anticancer Drug Screen. Data for tumor model L1210 Leukemia (intraperitoneal) in CD2F1 (CDF1) mice
# Details: higher T/C = longer survival
# Outline: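 Antitumor effect is scored in animals hosting a serially transplanted tumor. Values compare compound-dosed animals against vehicle-only controls as a simple quotient.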
# [1] = T/C endpoint: mean survival time, dose: 128.0 mg/kg/injection, schedule: Q04DX003 (ip), vehicle: saline
structure (smiles),measurement,setting,value
Nc1nc([Se])c2ncn(C3OC(CO)C(O)C3O)c2n1 (stereo unspecified),survivor count,"T/C endpoint: mean survival time, dose: 128.0 mg/kg/injection, schedule: Q04DX003 (ip), vehicle: clinical formulation",2 of 6 and 3 of 6
same,T/C,[1],117 [5 of 6 alive] and 121 % of control
same,survivor count,[1],2 of 6 and 5 of 6
same,T/C,"T/C endpoint: median survival time, dose: 0.25 mg/kg/injection, schedule: Q03HX024 (ip), vehicle: DMSO",125 % of control
same,T/C,"T/C endpoint: median survival time, dose: 0.5 mg/kg/injection, schedule: Q03HX016 (ip), vehicle: DMSO",133 % of control
same,T/C,"T/C endpoint: median survival time, dose: 0.5 mg/kg/injection, schedule: Q03HX024 (ip), vehicle: DMSO",141 % of control
same,T/C,"T/C endpoint: median survival time, dose: 1.0 mg/kg/injection, schedule: Q01DX009 (ip), vehicle: DMSO",137 % of control
same,T/C,"T/C endpoint: median survival time, dose: 1.0 mg/kg/injection, schedule: Q03HX008 (ip), vehicle: DMSO",147 % of control
same,T/C,"T/C endpoint: median survival time, dose: 2.0 mg/kg/injection, schedule: Q04DX003 (ip), vehicle: DMSO",126 % of control
same,T/C,"T/C endpoint: median survival time, dose: 4.0 mg/kg/injection, schedule: Q01DX009 (sc), vehicle: DMSO",125 % of control
same,T/C,"T/C endpoint: median survival time, dose: 4.0 mg/kg/injection, schedule: Q04DX003 (ip), vehicle: DMSO",141 % of control
same,T/C,"T/C endpoint: median survival time, dose: 8.0 mg/kg/injection, schedule: Q01DX001 (ip), vehicle: DMSO",126 % of control
same,T/C,"T/C endpoint: median survival time, dose: 8.0 mg/kg/injection, schedule: Q08DX002 (ip), vehicle: DMSO",126 % of control
same,T/C,"T/C endpoint: median survival time, dose: 16.0 mg/kg/injection, schedule: Q01DX001 (ip), vehicle: DMSO",128 % of control [9 of 10 alive]
same,survivor count,"T/C endpoint: median survival time, dose: 16.0 mg/kg/injection, schedule: Q03HX008 (ip), vehicle: DMSO",4 of 10
same,survivor count,"T/C endpoint: median survival time, dose: 16.0 mg/kg/injection, schedule: Q03HX016 (ip), vehicle: DMSO",4 of 10
same,survivor count,"T/C endpoint: median survival time, dose: 16.0 mg/kg/injection, schedule: Q03HX024 (ip), vehicle: DMSO",5 of 10
same,T/C,"T/C endpoint: median survival time, dose: 32.0 mg/kg/injection, schedule: Q01DX001 (ip), vehicle: DMSO",136 % of control
same,T/C,"T/C endpoint: median survival time, dose: 32.0 mg/kg/injection, schedule: Q01DX001 (sc), vehicle: DMSO",135 % of control
same,survivor count,"T/C endpoint: median survival time, dose: 32.0 mg/kg/injection, schedule: Q03HX008 (ip), vehicle: DMSO",0 of 10
same,survivor count,"T/C endpoint: median survival time, dose: 32.0 mg/kg/injection, schedule: Q03HX016 (ip), vehicle: DMSO",1 of 10
same,T/C,"T/C endpoint: median survival time, dose: 32.0 mg/kg/injection, schedule: Q08DX002 (ip), vehicle: DMSO",132 % of control
same,T/C,"T/C endpoint: median survival time, dose: 64.0 mg/kg/injection, schedule: Q01DX001 (ip), vehicle: DMSO",128 % of control
same,T/C,"T/C endpoint: median survival time, dose: 64.0 mg/kg/injection, schedule: Q01DX001 (oral), vehicle: DMSO",140 % of control
same,T/C,"T/C endpoint: median survival time, dose: 64.0 mg/kg/injection, schedule: Q01DX001 (sc), vehicle: DMSO",130 % of control
same,survivor count,"T/C endpoint: median survival time, dose: 64.0 mg/kg/injection, schedule: Q03HX008 (ip), vehicle: DMSO",0 of 10
same,T/C,"T/C endpoint: median survival time, dose: 64.0 mg/kg/injection, schedule: Q08DX002 (ip), vehicle: DMSO",133 % of control
same,T/C,"T/C endpoint: median survival time, dose: 128.0 mg/kg/injection, schedule: Q01DX001 (oral), vehicle: DMSO",148 % of control
same,T/C,"T/C endpoint: median survival time, dose: 128.0 mg/kg/injection, schedule: Q01DX001 (sc), vehicle: DMSO",137 % of control
same,survivor count,"T/C endpoint: median survival time, dose: 128.0 mg/kg/injection, schedule: Q01DX009 (oral), vehicle: DMSO",2 of 10
same,survivor count,"T/C endpoint: median survival time, dose: 128.0 mg/kg/injection, schedule: Q04DX003 (ip), vehicle: DMSO",5 of 10
same,T/C,"T/C endpoint: median survival time, dose: 128.0 mg/kg/injection, schedule: Q08DX002 (ip), vehicle: DMSO",137 % of control [8 of 10 alive]
same,survivor count,"T/C endpoint: median survival time, dose: 256.0 mg/kg/injection, schedule: Q01DX001 (ip), vehicle: DMSO",0 of 10
same,survivor count,"T/C endpoint: median survival time, dose: 256.0 mg/kg/injection, schedule: Q01DX001 (oral), vehicle: DMSO",6 of 10
same,survivor count,"T/C endpoint: median survival time, dose: 256.0 mg/kg/injection, schedule: Q01DX001 (sc), vehicle: DMSO",0 of 10
same,survivor count,"T/C endpoint: median survival time, dose: 256.0 mg/kg/injection, schedule: Q01DX009 (oral), vehicle: DMSO",0 of 10
same,survivor count,"T/C endpoint: median survival time, dose: 256.0 mg/kg/injection, schedule: Q08DX002 (ip), vehicle: DMSO",1 of 10
same,survivor count,"T/C endpoint: median survival time, dose: 512.0 mg/kg/injection, schedule: Q01DX001 (ip), vehicle: DMSO",0 of 10
same,survivor count,"T/C endpoint: median survival time, dose: 512.0 mg/kg/injection, schedule: Q01DX001 (oral), vehicle: DMSO",0 of 10
same,survivor count,"T/C endpoint: median survival time, dose: 512.0 mg/kg/injection, schedule: Q01DX001 (sc), vehicle: DMSO",0 of 10
same,survivor count,"T/C endpoint: median survival time, dose: 1024.0 mg/kg/injection, schedule: Q01DX001 (oral), vehicle: DMSO",0 of 10
